Experimental data published in patent US20050075276A1, “Use of inhibitors of glycogen synthase-3 to augment CD28 dependent -T-cell responses” (priority 2003, published 2005).

Tested on: IL-2 transcription
Settings: 100 uM, FIG. 3B

`O=C1NC(=O)C(c2ccccc2[N+](=O)[O-])=C1Nc1ccc(O)c(Cl)c1` [SB415286] was tested, and the “effect on IL-2 gene activation in the context of CD28 co-ligation” value (anti-CD3/CD28 activation) was “preferentially increased the response”, the “effect on anti-CD3 induced gene activation” value (anti-CD3 alone) was “slight effect” and the “effect on anti-CD3 induced gene activation relative to that in the context of anti-CD28 co-ligation” value was roughly 10 fold lower.
